# Measurements reported in PubChem BioAssay AID493014 (National Center for Advancing Translational Sciences (NCATS), 2011).
# Among all 340,000 compounds or so, about 170 (0.05%) were called active. Inconclusive results, whose numbers are uncertain, are shown with a selection of clear calls. Calls come from the whole dose curve; as a rule, active = well fitted inhibition curve with a large enough effect in the signal ratio, with a control signal flat (not every such curve was filed as active); inconclusive = small, poorly fitted or top-dose-only effect, or effect the other way, or a change in a side signal; inactive = flat fitted curve, though single readings scatter; the % refers to the signal ratio. Where the call is inconclusive, the potency comes from a doubtful curve fit.
# Assay: qHTS Assay to Find Inhibitors of Chronic Active B-Cell Receptor Signaling;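 for activity change, negative = inhibition: plate controls were basal doxycycline-induced cells for no effect and cells given 10 µM MG132 for full effect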
# Conditions: ABC-DLBCL IkBa-CBG/CBR reporter, luminescence ratio (green luciferase fused to IkBa over red control in TMD8 lymphoma cells), 4 h; activity change, negative = inhibition: at 46.1 µM (top of the series)
# Summary of the method: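 Compounds up to 46 uM were incubated four hours with TMD8 cells whose green CBG68 luciferase is fused to IkappaBalpha; red CBR luminescence normalised the signal, and concentration-effect curves were fitted to fusion, red and ratio data.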
# Potency is the fitted concentration of half-maximal effect.
SMILES,"activity change, negative = inhibition",Potency
O=C(O)c1ccc(NC2=C(Cl)C(=O)c3ccccc3C2=O)cc1,inconclusive: 19.7%,–
CSc1cc(-c2ccc(Cl)cc2)c(C(=O)N2CCCC2)s1,inconclusive: -13.9%,–
CCNC(=O)Cc1c(OC)ccc2cc(Br)ccc12,inactive: 2.36%,–
COc1ccc(Cc2noc(CN(C)Cc3ccc(-n4cccn4)cc3)n2)cc1OC,inconclusive: -0.059%,–
COC(=O)c1ccccc1NC(=O)c1ccc(COc2ccc3c(c2)CCC3)cc1,–,"inconclusive: 7.08 µM [falling, full curve, poor fit]"
CCc1ccc(N(CC(=O)NC(C)C)C(=O)CCC(=O)Nc2nccs2)cc1,inactive: 2.39%,–
CC(=O)N/C(=C\c1ccccc1)C(=O)OCc1cccc(S(=O)(=O)N(C)C)c1,inconclusive: -4.73%,–
CC1(C)CC(=O)C=C(NCCc2c[nH]c3ccccc23)C1,inconclusive: 23.5%,–
COc1cc(CNc2ccc(N3CCN(C(C)=O)CC3)cc2)ccc1OCc1ccc(F)cc1,inconclusive: -15.8%,–
CCOCCCNC(=O)c1cc2c(=O)n3cccc(C)c3nc2s1,inactive: -8.43%,–
O=C(O)C1Nc2c(O)cc(Cl)c([N+](=O)[O-])c2C2C=CCC12 (stereo unspecified),inactive: 2.02%,–
Cc1cccc(OCCNC(=O)c2ncn[nH]2)c1,inconclusive: -2.84%,–
CCCN(CCC)S(=O)(=O)c1ccc(C(=O)Nc2ccc(S(=O)(=O)Nc3nnc(CC)s3)cc2)cc1,inconclusive: 0.116%,–
c1ccc2c(Nc3nncs3)c3ccccc3nc2c1,inactive: 6.06%,–
O=C(NCc1ccc(Cl)cc1)C1CCC(CNc2c(N3CCCCC3)c(=O)c2=O)CC1 (stereo unspecified),inconclusive: -4.97%,–
COc1ccc(Cc2noc(CN3CCN(C4CCc5ccccc5C4)CC3)n2)cc1OC (stereo unspecified),inconclusive: -27.2%,–
Cc1ccc(NC(=S)N(CCN(C)C)Cc2cc3cccc(C)c3[nH]c2=O)cc1,inactive: -0.151%,–
COc1ccc(/C=C/C(=O)OCC(=O)NC2CCCCC2C)c(OC)c1 (stereo unspecified),inactive: 1.33%,–
CCc1nc2sc3c(c2c(=O)n1CCO)CCC3,inactive: -11.5%,–
COCCN1C(=O)N[C@@H](c2cccc(F)c2)C(C(=O)OC)=C1C,inconclusive: 7.01%,–
CCc1ccc(NC(=O)COn2nnc3ccc(S(=O)(=O)N(C)C)cc32)cc1,inconclusive: 8.25%,–

# Structures shown so far containing fluorine (2):
SMILES,"activity change, negative = inhibition",Potency
COc1cc(CNc2ccc(N3CCN(C(C)=O)CC3)cc2)ccc1OCc1ccc(F)cc1,inconclusive: -15.8%,–
COCCN1C(=O)N[C@@H](c2cccc(F)c2)C(C(=O)OC)=C1C,inconclusive: 7.01%,–

# Quoted from the listing for reference:
SMILES,"activity change, negative = inhibition",Potency
COc1cc(CNc2ccc(N3CCN(C(C)=O)CC3)cc2)ccc1OCc1ccc(F)cc1,inconclusive: -15.8%,–
CCOCCCNC(=O)c1cc2c(=O)n3cccc(C)c3nc2s1,inactive: -8.43%,–

# Following part

SMILES,"activity change, negative = inhibition",Potency
CCOC(=O)c1cnc(-n2nc(C)cc2C)nc1NNc1ncc(-c2ccccc2)cn1,inactive: -26%,–
O=c1[nH]c(SCc2ccc([N+](=O)[O-])cc2)nc2[nH]ncc12,inconclusive: -9.85%,–
COc1cccc2sc3ccc(NCCC4CCCN4C)cc3c(=O)c12 (stereo unspecified),–,"inconclusive: 10 µM [falling, partial curve, poor fit]"
O=C(CCc1nc(-c2ccccc2)no1)NC1CCCCC1,–,"inconclusive: 2.91 µM [rising, partial curve]"
O=C(CN1CC(=O)Oc2ccccc21)OCC(=O)c1cccc(Br)c1,–,"inconclusive: 22.4 µM [falling, partial curve]"
C/C(=N\NC(=O)c1ccccc1C)c1ccc(N2CCOCC2)cc1,–,"inconclusive: 6.51 µM [falling, partial curve, poor fit]"
O=C(CNC(=O)c1ccco1)OCc1ccc(C(=O)Oc2ccccc2)cc1,inconclusive: 15.6%,–
C=C(C)C1CC=C(C)/C(=N\NC(=O)CNc2ccccc2OC)C1 (stereo unspecified),–,"inconclusive: 10.3 µM [falling, partial curve]"
COc1ccc2oc(C)c(C(=O)Cn3ccnc3)c2c1,inconclusive: -1.09%,–
COc1cccc(/C=C2/SC(=S)N(CCC(=O)N3CCOCC3)C2=O)c1,inactive: -15.7%,–
O=C(CSc1cccc[n+]1[O-])Nc1cc2c(cc1Cl)C(=O)c1ccccc1C2=O,–,"inconclusive: 29.1 µM [falling, single point]"
O=C(O)c1ccc(-n2nnnc2SCc2ccccc2Br)cc1,inconclusive: 9.84%,–
NC(=O)[C@H]1CC2(CC(c3cccc(NC(=O)COc4ccc(Cl)cc4)c3)=NO2)CN1C(=O)C(c1ccccc1)c1ccccc1 (stereo partly specified),–,"inconclusive: 10 µM [falling, partial curve]"
Cc1cc(Sc2ncnc(N)c2[N+](=O)[O-])ncn1,–,"inconclusive: 6.31 µM [falling, single point]"
COc1ccc(N=C(C)c2sc3ccccc3c2O)cc1,inconclusive: 10.7%,–
CN(C(=O)c1cc2n(n1)C(C(F)(F)F)CC(c1ccco1)N2)c1ccc(OC(F)(F)F)cc1 (stereo unspecified),inactive: -3.08%,–
CN(C)c1ccc(/C(=N\O)C(F)(F)F)cc1,inactive: 0.839%,–
CC(C)NC(=O)CN1CCN(C(=O)c2ccc3oc(CCCc4ccccc4)nc3c2)CC1,–,"inconclusive: 35.5 µM [rising, single point]"
COc1cc(C(=O)Nc2ccc3c(c2)nc(C)n3C)cc(OC)c1OC,–,"inconclusive: 20 µM [falling, single point]"
COc1ccc2[nH]c3c(N4CCc5ccccc5C4)ncnc3c2c1,inconclusive: 18.5%,–
CCc1nn(CC(=O)N2CCC(C(N)=O)CC2)c(=O)c2cc3occc3n12,inconclusive: -4.49%,–

SMILES,"activity change, negative = inhibition",Potency
CSCC[C@H](NC(=O)[C@@H]1Cc2ccccc2CN1)C(=O)NC1CCCCC1,–,"inconclusive: 15.8 µM [falling, partial curve]"
Cc1ccc(C)c(Nc2cc(C(=O)NCc3cccnc3)c3ccccc3n2)c1,inconclusive: 23.2%,–
CCn1c(=O)cc(SCC(=O)Nc2cccnc2)c2ccccc21,–,"inconclusive: 29.1 µM [falling, single point]"
CCOC(=O)c1nc(S(C)(=O)=O)ncc1Cl,inconclusive: 8.53%,–
CN(C)CCCNCC(=O)c1c(-c2ccccc2)n(C)c2ccccc12,–,"inconclusive: 35.5 µM [falling, single point]"
COc1ccccc1C1=NC(c2ccc(C)cc2)N=C1C (stereo unspecified),–,"inconclusive: 11.2 µM [falling, single point]"
COc1ccccc1N1C(N)=NC(N)=NC1(C)C,inactive: 1.77%,–
O=C(Nc1ccc(CN2CCCCC2)cc1)c1cc(Br)ccc1Cl,inconclusive: 1.78%,–
Cc1ccc(CSc2nnc(-c3ccccn3)n2N)cc1,–,"inconclusive: 22.4 µM [falling, single point]"
Cc1cc(NC2CCCC2)n2nc(C)c(-c3ccccc3)c2n1,inconclusive: 7.45%,–
Cc1cc2nnc(SCCCCN3C(=O)c4ccccc4C3=O)n2c2ccccc12,inactive: 1.96%,–
CCOC(=O)c1c(NC(=O)C2C3C=CC(C3)C2C(=O)O)sc2c1CCC(CC)C2 (stereo unspecified),inconclusive: 4.57%,–
Nc1c(NCCN2CCOCC2)c2ccccc2oc1=O,–,"inconclusive: 18.4 µM [falling, partial curve]"
Cc1nc(SCC(=O)Nc2nccs2)c(C#N)c(C)c1C,inconclusive: 11.6%,–
O=C(CNc1cccc2ccccc12)N/N=C/c1ccc[nH]1,inconclusive: -4.83%,–
CN(C)CCn1c2c(c(SCC(=O)Nc3ccc4c(c3)OCCO4)nc1=O)CCCC2,–,"inconclusive: 23.1 µM [falling, partial curve]"
CCS(=O)(=O)c1ncc(Cl)c(C(=O)Nc2ccc(S(=O)(=O)N3CCCC(C)C3)cc2)n1 (stereo unspecified),inconclusive: 14.3%,–
Cc1cc(N2CCN(Cc3cn(C)nc3-c3ccccc3F)CC2)cc(C)n1,–,"inconclusive: 35.5 µM [falling, single point]"
COc1ccc(Cc2cc(-c3ccc(F)cc3)n[nH]c2=O)cc1,–,"inconclusive: 10 µM [falling, partial curve, poor fit]"
O=C(Nc1ccc(Cl)cc1)Nc1ccccn1,inconclusive: 2.31%,–
O=C(O)c1ccccc1SCC(=O)N1CCc2ccccc21,–,"inconclusive: 11.2 µM [falling, single point]"

SMILES,"activity change, negative = inhibition",Potency
O=C(NCc1cccs1)C1CC(c2ccc(F)cc2)=NO1 (stereo unspecified),–,"inconclusive: 22.4 µM [falling, partial curve]"
O=S(=O)(c1ccc(OCC(O)CNCc2ccco2)c(Cl)c1)N1CCOCC1 (stereo unspecified),inactive: -9.09%,–
Cc1cccc(Oc2cc(NC(=O)c3ccccc3)cc([N+](=O)[O-])c2)c1,inconclusive: 11.7%,–
O=C(Nc1ccc(Cl)cn1)c1ccc(COc2ccccc2Br)o1,inconclusive: -7.33%,–
Cc1cc(C)c(NC(=O)CNC(=O)COC(=O)Cc2ccccc2C)c(C)c1,inconclusive: -2.07%,–
Cn1c(Sc2ccccc2Cl)c(C=O)c2ccccc21,–,"inconclusive: 3.98 µM [falling, single point]"
COc1ccc(CNCC(=O)Nc2sccc2C#N)cc1,inconclusive: -0.63%,–
Nc1nonc1-n1nnc(C(=O)N/N=C/c2ccc(O)cc2)c1COc1ccc(F)cc1,inconclusive: 14.1%,–
Cn1nc(C(F)(F)F)c(-c2ccc(F)cc2)c1NC(=O)c1ccco1,inactive: -0.501%,–
O=C1CCCC/C1=C/NCc1ccc(F)cc1,inconclusive: 0.554%,–
CCCCCn1nc(C(=O)OCc2nnc(-c3ccccc3)o2)c2ccccc2c1=O,inactive: 7.39%,–
CC1CCC/C(=N\NC(=O)c2ccncc2)C1 (stereo unspecified),inconclusive: -11.4%,–
O=C(CN1C(=O)S/C(=C/c2ccc(N3CCOCC3)cc2)C1=O)N1CCOCC1,inconclusive: 2.75%,–
COC(=O)c1ccc(CNC(=O)COC(=O)C2CCC(C(C)(C)C)CC2)cc1 (stereo unspecified),inactive: -0.588%,–
Cc1ccc(OCCN2CCN(c3ncnc4sc(C)c(C)c34)CC2)cc1,inconclusive: 0.992%,–
COC(=O)c1sc(NC(=O)COc2ccc(C)cc2)nc1C,–,"inconclusive: 25.9 µM [rising, single point]"
NS(=O)(=O)OCCCCCc1ccccc1,–,"inconclusive: 6.31 µM [rising, full curve, poor fit]"
O=C(NCc1ccc(C(=O)O)cc1)OCc1ccccc1,–,"inconclusive: 14.1 µM [falling, partial curve]"
